Out of some 390,000 compounds screened, about 610 (0.16%) were called active. The source calls these results inconclusive, neither active nor inactive. Calls follow the shape of the dose curve; as a rule, active = well fitted inhibition curve with a large enough effect; inconclusive = small, poorly fitted or top-dose-only effect, or effect the other way, or another doubt; inactive = no such curve, though single readings can be large or run the other way. Some salts or complexes appear as unconnected parts, following the source record.
test: Nrf2 qHTS screen for inhibitors: counterscreen for cytotoxicity; settings: A549 ARE-Fluc cells, CellTiter-Fluor viability, 18-24 h
Excerpt: NIH Molecular Libraries Probe Production Network [MLPCN]
NIH Chemical Genomics Center [NCGC]
Assay Provider: Shyam Biswal, Johns Hopkins University
Nrf2 is a transcription factor that maintains cellular redox homoestasis and protects cells from xenobiotics. Nrf2 binds to the antioxidant response element (ARE) to induce gene expression of a broad spectrum of genes that encode for antioxidants. […] Finding a small molecule that act as an inhibitor of Nrf2 function would represent a novel therapeutic target that could lead to improvement in survival of patients undergoing chemo- and/or radio- therapy.
So here we implemented a counterscreen to weed out the cytotoxic compounds.
1. Shibata, T., et al., Genetic Alteration of Keap1 Confers Constitutive Nrf2 Activation and Resistance to Chemotherapy in Gallbladder Cancer. Gastroenterology, 2008.
2. Sjoblom, T., et al., The consensus coding sequences of human breast and colorectal cancers. Science, 2006. 314(5797): p. 268-74.
NCGC Assay Protocol Summary:
A concentration-response assay was performed with A549 ARE_Fluc cells which are suspended in 5% FBS OPTI-MEM. Five uL were dispensed into 1536-well white TC-treated plate using the Kalypsys dispenser to achieve a density of 5000 cells/well in all columns except column 1. The plate is incubated at 37deg C at 5% CO2 for 2 hours before 23 nL of compounds are added with the Kalypsys pin tool equipped with a 1,536-pin array containing 10-nL slotted pins (FP1S10, 0.457-mm diameter, 50.8 mm long; V&P Scientific). The control compounds Budesonide and Staurosporine are both added at a concentration of 2mM and Budesonide is also added as a 1:10 titration, starting at 200uM, to achieve dose-response. After an 18-24 hour incubation at 37deg C at 5% CO2, 5ul of medium is added to column 1. Afterwards 1ul of 5x of CellTiter-Fluor (Promega) is added to every well. The plate is then incubated at 37deg C at 5% CO2 for 30 minutes before they are read on the ViewLux (Perkin Elmer) for a fluorescent read Ex=405(10)/Em=525(10) for a 3 second exposure, 2x binning, and high gain. Then 3 uL of 3x BugLite is dispensed into all wells and the plate is incubated at ambient room temperature for 15 minutes. Afterwards another ViewLux read is performed using the clear filter to get a luminescent read with the settings of 40 second exposure, 2x binning, and high gain. Cytotoxicity is assessed through the first fluorescent read and then biochemical activity against Nrf2 is measured in the luminescent read.
Potency is read from the fitted curve at half-maximal effect.

| Structure (SMILES) | Potency |
| --- | --- |
| CCOC(=O)C(CC)C1=NC(C)(C)Cc2ccccc21.O=[N+]([O-])c1cc([N+](=O)[O-])c(O)c([N+](=O)[O-])c1 (stereo not given) | inconclusive: 32.6 µM |
| O=C(O)c1cccc(Nc2c([N+](=O)[O-])cc([N+](=O)[O-])cc2[N+](=O)[O-])c1 | inconclusive: 29.1 µM |
| COc1ccc2c(c1O)-c1c(O)c(OC)cc3c1[C@H](C2)[N+](C)(C)CC3.O=[N+]([O-])c1cc([N+](=O)[O-])c([O-])c([N+](=O)[O-])c1[O-] | inconclusive: 14.6 µM |
| O=[N+]([O-])c1cc([N+](=O)[O-])c(OC2CCCCC2O)c([N+](=O)[O-])c1 (stereo not given) | inconclusive: 20.6 µM |
| O=[N+]([O-])c1cc([N+](=O)[O-])c(NCC2CCS(=O)(=O)C2)c([N+](=O)[O-])c1 (stereo not given) | inconclusive: 29.1 µM |

Source: PubChem BioAssay AID504648 (National Center for Advancing Translational Sciences (NCATS), 2011)
